Assay results published in the supplement of paper PMC10849652.
Some of the results follow. Residues, ends and D or L forms follow the SMILES beside them. *: point of attachment. Cbz = O=C(OCc1ccccc1)*

Protein sequences, listed by entry. Tags and fused reporters are not part of them. Lines headed by an entry give the natural chain unless they say otherwise; changes in a name come on top.
UniProt Q7L211: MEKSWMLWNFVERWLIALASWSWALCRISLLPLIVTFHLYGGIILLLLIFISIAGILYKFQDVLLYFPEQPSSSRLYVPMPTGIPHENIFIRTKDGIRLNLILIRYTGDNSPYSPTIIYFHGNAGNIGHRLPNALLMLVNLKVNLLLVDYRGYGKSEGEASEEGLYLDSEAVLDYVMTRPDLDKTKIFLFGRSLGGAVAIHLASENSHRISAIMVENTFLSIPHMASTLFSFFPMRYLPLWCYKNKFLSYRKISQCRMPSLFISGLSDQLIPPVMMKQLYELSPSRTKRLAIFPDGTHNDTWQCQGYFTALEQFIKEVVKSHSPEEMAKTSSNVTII
UniProt Q9GZN1, whole entry, looked up: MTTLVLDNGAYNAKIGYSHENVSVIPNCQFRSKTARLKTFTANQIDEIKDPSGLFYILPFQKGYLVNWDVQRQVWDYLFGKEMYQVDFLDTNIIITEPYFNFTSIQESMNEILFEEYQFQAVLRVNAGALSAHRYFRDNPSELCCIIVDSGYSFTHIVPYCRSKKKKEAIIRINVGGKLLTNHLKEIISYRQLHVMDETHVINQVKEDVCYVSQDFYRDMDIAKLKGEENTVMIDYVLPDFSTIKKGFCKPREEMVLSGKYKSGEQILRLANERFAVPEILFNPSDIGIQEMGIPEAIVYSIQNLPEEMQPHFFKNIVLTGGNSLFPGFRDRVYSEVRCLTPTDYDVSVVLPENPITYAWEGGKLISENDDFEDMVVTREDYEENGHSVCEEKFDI
UniProt P16219: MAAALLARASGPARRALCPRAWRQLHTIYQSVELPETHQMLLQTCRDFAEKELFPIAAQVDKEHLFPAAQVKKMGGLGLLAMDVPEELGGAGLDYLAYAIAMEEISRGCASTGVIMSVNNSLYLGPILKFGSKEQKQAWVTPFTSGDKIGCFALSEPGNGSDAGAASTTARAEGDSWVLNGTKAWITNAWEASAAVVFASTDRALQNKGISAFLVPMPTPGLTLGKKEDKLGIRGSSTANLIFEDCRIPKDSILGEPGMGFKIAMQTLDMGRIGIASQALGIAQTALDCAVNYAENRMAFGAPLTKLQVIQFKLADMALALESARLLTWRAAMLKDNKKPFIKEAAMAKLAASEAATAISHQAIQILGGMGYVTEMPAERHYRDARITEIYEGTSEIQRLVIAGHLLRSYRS
UniProt Q9NRN7: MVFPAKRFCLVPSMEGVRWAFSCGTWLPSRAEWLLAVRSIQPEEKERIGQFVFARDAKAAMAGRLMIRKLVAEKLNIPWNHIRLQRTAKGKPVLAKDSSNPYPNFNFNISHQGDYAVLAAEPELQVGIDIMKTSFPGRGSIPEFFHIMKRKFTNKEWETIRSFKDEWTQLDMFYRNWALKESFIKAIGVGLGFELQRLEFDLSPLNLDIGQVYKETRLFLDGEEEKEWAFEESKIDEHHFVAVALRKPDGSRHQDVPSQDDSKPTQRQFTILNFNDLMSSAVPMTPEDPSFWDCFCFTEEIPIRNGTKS
UniProt P49588, whole entry, looked up: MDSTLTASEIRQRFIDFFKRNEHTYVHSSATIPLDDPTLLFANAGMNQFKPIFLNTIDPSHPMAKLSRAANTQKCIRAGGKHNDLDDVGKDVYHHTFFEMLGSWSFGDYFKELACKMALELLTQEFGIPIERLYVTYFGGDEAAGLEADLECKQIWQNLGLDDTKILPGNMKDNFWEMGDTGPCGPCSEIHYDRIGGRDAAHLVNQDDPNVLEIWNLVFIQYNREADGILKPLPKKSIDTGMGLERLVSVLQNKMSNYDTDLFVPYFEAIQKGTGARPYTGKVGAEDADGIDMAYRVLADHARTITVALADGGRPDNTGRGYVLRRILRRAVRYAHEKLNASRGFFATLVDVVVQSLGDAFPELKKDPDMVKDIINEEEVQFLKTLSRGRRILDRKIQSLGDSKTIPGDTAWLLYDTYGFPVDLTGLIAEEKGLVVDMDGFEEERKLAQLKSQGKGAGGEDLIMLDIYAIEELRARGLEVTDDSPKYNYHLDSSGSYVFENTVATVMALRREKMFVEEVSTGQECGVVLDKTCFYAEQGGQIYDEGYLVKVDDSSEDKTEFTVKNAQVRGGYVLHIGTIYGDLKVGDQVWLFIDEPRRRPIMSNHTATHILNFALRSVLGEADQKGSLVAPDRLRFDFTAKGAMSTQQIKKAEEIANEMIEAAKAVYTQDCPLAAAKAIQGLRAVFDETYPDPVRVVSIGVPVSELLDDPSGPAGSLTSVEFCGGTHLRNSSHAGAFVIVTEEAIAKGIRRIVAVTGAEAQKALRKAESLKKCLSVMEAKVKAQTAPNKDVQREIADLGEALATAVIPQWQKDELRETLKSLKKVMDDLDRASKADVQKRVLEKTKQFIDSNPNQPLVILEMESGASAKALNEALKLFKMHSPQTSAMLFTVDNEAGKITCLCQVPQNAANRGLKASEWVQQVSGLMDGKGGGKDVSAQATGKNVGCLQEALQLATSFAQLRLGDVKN
UniProt P07311: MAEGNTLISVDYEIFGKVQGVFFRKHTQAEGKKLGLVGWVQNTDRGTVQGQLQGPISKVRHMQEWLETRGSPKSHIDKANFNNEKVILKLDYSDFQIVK
UniProt O14639: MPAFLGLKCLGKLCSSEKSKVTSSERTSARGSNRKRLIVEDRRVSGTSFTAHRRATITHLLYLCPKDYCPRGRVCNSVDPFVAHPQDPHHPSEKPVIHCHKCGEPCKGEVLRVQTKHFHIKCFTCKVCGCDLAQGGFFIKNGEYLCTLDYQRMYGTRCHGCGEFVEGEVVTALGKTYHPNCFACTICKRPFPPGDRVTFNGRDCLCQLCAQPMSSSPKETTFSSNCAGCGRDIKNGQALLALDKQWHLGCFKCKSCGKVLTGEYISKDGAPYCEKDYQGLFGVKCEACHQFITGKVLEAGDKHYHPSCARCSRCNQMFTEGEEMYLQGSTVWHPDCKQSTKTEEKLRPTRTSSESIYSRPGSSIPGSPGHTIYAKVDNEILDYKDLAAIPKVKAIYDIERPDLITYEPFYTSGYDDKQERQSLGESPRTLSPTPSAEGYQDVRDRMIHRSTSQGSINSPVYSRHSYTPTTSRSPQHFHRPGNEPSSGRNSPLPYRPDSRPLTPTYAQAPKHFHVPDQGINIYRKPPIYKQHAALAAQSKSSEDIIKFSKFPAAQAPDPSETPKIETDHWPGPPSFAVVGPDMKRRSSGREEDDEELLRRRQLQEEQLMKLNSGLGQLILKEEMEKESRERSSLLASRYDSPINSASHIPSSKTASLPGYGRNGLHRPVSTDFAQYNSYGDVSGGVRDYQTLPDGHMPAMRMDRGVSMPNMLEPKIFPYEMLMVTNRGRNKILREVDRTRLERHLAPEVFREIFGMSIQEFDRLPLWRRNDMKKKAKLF
UniProt Q9NZ32, whole entry, looked up: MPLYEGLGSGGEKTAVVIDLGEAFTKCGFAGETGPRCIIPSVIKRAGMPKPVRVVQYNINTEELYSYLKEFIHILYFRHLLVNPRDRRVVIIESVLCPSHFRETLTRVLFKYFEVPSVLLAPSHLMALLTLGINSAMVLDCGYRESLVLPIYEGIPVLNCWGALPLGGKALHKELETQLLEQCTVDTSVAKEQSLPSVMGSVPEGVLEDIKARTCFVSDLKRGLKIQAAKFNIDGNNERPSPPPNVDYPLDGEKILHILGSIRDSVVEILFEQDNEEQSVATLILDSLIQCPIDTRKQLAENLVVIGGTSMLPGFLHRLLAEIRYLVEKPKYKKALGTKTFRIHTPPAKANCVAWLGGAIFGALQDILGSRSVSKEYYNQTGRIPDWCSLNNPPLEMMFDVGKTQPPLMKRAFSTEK
UniProt Q96IU4: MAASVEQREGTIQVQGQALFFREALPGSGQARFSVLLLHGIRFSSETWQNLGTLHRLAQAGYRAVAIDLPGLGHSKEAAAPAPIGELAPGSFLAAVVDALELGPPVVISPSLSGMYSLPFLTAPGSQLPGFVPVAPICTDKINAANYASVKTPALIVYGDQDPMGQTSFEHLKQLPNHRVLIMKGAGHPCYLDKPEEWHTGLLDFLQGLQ
UniProt Q6UY14: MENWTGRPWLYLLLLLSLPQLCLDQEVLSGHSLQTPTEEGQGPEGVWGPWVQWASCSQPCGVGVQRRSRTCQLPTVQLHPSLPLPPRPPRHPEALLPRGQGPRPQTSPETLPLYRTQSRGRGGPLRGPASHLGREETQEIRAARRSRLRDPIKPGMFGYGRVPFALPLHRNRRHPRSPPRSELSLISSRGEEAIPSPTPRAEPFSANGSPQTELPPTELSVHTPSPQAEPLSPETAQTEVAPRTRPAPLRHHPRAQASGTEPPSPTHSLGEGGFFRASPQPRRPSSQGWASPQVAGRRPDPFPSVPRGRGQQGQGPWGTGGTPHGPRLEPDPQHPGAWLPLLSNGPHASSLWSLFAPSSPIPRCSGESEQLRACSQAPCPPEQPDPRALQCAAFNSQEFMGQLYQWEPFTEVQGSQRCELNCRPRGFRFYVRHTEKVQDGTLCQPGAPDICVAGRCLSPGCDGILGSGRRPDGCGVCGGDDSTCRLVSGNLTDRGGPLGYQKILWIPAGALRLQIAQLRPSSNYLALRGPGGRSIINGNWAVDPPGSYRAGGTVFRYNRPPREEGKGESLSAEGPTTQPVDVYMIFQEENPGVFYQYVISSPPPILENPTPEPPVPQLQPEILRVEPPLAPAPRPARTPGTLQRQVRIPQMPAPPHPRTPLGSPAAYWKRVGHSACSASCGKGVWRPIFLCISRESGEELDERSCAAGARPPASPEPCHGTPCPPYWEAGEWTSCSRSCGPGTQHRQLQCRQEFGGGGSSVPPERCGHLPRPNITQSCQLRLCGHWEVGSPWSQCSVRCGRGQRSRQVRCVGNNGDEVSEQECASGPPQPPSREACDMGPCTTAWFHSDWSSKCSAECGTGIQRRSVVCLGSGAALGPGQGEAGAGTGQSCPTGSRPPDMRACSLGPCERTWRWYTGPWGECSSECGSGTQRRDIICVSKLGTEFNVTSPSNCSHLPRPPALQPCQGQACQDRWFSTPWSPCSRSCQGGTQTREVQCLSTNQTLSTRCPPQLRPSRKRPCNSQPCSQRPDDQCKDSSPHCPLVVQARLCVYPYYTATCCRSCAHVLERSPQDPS
UniProt Q6DHV7: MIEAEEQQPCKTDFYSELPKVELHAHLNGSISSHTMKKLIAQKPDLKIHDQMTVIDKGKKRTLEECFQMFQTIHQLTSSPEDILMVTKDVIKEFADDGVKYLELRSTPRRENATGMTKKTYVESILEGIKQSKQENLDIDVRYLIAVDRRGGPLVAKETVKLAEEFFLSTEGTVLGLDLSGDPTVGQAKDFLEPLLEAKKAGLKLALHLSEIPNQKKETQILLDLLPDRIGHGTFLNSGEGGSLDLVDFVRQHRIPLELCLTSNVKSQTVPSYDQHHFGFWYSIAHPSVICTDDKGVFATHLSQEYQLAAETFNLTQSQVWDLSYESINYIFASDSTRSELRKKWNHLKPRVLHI
UniProt O00154: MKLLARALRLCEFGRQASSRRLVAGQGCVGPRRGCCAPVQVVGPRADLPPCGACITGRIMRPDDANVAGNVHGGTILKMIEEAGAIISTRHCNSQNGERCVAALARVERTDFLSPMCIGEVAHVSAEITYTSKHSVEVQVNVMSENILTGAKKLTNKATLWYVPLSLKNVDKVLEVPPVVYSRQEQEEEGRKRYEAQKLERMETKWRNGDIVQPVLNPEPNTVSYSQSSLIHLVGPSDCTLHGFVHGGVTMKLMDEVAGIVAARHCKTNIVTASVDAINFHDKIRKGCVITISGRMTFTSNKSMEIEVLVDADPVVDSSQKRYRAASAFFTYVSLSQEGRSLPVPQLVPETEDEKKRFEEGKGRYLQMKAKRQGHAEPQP
UniProt Q9NUJ1: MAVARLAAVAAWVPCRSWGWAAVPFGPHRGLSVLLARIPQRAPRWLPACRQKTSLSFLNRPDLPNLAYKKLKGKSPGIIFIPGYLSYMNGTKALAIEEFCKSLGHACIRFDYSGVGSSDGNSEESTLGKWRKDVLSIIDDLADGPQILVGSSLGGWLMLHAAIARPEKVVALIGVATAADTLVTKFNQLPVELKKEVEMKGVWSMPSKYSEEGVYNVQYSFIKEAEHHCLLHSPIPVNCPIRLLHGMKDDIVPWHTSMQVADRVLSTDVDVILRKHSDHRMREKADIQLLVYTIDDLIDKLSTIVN
UniProt O14734: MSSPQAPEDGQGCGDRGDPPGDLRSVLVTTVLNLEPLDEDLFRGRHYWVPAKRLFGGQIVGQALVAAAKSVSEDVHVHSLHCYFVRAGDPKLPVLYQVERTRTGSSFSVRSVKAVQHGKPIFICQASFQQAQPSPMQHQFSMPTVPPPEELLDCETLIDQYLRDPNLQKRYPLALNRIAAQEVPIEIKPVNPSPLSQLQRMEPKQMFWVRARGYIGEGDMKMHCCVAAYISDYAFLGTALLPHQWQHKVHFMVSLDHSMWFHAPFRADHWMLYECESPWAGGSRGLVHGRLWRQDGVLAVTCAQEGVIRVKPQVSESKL

What was measured:
Assay in all cases: log2 fold change, soluble protein after heating vs DMSO (PISA); higher = thermal stabilisation; K562 cells, 10 uM, 30 min; active = over 0.2 and 3.5 SD of the protein, either way, in both replicates (recomputed)
IRAK-1-4 Inhibitor I = compound: C1COCCN1CCN2C3=CC=CC=C3N=C2NC(=O)C4=CC(=CC=C4)[N+](=O)[O-] [IRAK-1-4 Inhibitor I]
Method in brief: (§1)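 Quantification of soluble protein used TMTpro 16plex LC-MS/MS, with channel sums equalised. Samples were the supernatant after 21,000xg for 90 min of pooled aliquots from K562 cells (2×10^6 cells/mL) treated with 10 μM compound for 30 min, heated for 3 min over 48°C-58°C, and extracted in PBS with 0.5% NP-40 at 4°C. Values, from duplicates, describe thermal stability against control samples on a log2 fold-change scale.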

ibrutinib = compound: C=CC(=O)N1CCC[C@@H](n2nc(-c3ccc(Oc4ccccc4)cc3)c3c(N)ncnc32)C1 [ibrutinib]
Method in brief: as §1

[1] = compound: CC(=O)c1cnc2ccc(-c3cc(Cl)c(O)c(Cl)c3)nc2c1N[C@H]1CC[C@H](CN(C)C)CC1
Method in brief: as §1

ralimetinib = compound: CC(C)(C)Cn1c(N)nc2ccc(-c3[nH]c(C(C)(C)C)nc3-c3ccc(F)cc3)nc21 [ralimetinib]
Method in brief: as §1

[2] = compound: CC(C)(O)CC(=O)NCCn1ccc2ncnc(Nc3ccc(Oc4cccc(C(F)(F)F)c4)c(Cl)c3)c21
Method in brief: as §1

[3] = compound: CC(C)C1=C2N=C(C=C(N2N=C1)NCC3=CC=CC=C3)NCCCCCCN
Method in brief: as §1

[4] = compound: CC(C)C[C@@H](C=O)NC(=O)[C@H](CC(C)C)NC(=O)[C@H](CC(C)C)NC(=O)OCc1ccccc1
Method in brief: as §1

pinometostat = compound: CC(C)N(C[C@H]1O[C@@H](n2cnc3c(N)ncnc32)[C@H](O)[C@@H]1O)[C@H]1C[C@@H](CCc2nc3cc(C(C)(C)C)ccc3[nH]2)C1 [pinometostat]
Method in brief: as §1

[5] = compound: CC1=C(C(CC(=O)N1)C2=CC=C(C=C2)C(F)(F)F)C(=O)NC3=C(C=C4C(=C3)C=NN4)F
Method in brief: as §1

[6] = compound: CC1=C(C2=C(C=C1)C(=O)C3=CC=CC=C3N2CCCN)C
Method in brief: as §1

[7] = compound: CC1=C(C=C(C=C1)NC(=O)C2=CC(=CC=C2)C(C)(C)C#N)NC3=CC4=C(C=C3)N=CN(C4=O)C
Method in brief: as §1

[8] = compound: CC1=C(C=C(C=C1)NC(=O)C2=CC(=CC=C2)N(C)C)NC(=O)C3=CC=C(C=C3)O
Method in brief: as §1

[9] = compound: CC1=CC=C(C=C1)SC2=C3C=C(SC3=CN=C2)C(=O)N
Method in brief: as §1

[10] = compound: CC1=NC(=CC=C1)C2=C(N=C(N2)C(C)(C)C)C3=CC4=NC=CN=C4C=C3
Method in brief: as §1

Nexturastat A = compound: CCCCN(Cc1ccc(C(=O)NO)cc1)C(=O)Nc1ccccc1 [Nexturastat A]
Method in brief: as §1

vemurafenib = compound: CCCS(=O)(=O)Nc1ccc(F)c(C(=O)c2c[nH]c3ncc(-c4ccc(Cl)cc4)cc23)c1F [vemurafenib]
Method in brief: as §1

[11] = compound: CCCS(=O)(=O)Nc1ccc(F)c(C(=O)c2c[nH]c3ncc(Cl)cc23)c1F
Method in brief: as §1

[12] = compound: CCCc1cc(C)[nH]c(=O)c1CNC(=O)c1cc(-c2ccnc(N3CCN(C)CC3)c2)cc2c1cnn2C(C)C
Method in brief: as §1

givinostat = compound: CCN(CC)Cc1ccc2cc(COC(=O)Nc3ccc(C(=O)NO)cc3)ccc2c1 [givinostat]
Method in brief: as §1

barasertib = compound: CCN(CCCOc1ccc2c(Nc3cc(CC(=O)Nc4cccc(F)c4)[nH]n3)ncnc2c1)CCOP(=O)(O)O [barasertib]
Method in brief: as §1

Measured: log2 fold change

ABHD13 (UniProt Q7L211)
inactive: IRAK-1-4 Inhibitor I -0.001 | ibrutinib -0.135 | [1] -0.026 | ralimetinib -0.279 | [2] -0.106 | [3] -0.255 | [4] 0.008 | pinometostat -0.051 | [5] 0.043 | [6] 0 | [7] 0 | [8] -0.111 | [9] -0.057 | [10] 0.137 | Nexturastat A 0.045 | vemurafenib -0.027 | [11] 0.026 | [12] -0.03 | givinostat 0.131 | barasertib 0.036

ACTR6 (UniProt Q9GZN1)
inactive: IRAK-1-4 Inhibitor I 0.041 | ibrutinib 0.032 | [1] -0.043 | ralimetinib 0.066 | [2] 0.06 | [3] -0.021 | [4] -0.081 | pinometostat 0.073 | [5] 0.011 | [6] -0.023 | [7] -0.022 | [8] 0.145 | [9] 0.036 | [10] 0.037 | Nexturastat A -0.091 | vemurafenib -0.02 | [11] 0.025 | [12] -0.036 | givinostat -0.025 | barasertib -0.025

ACADS (UniProt P16219)
inactive: IRAK-1-4 Inhibitor I -0.014 | ibrutinib -0.007 | [1] -0.025 | ralimetinib -0.016 | [2] -0.035 | [3] 0.024 | [4] -0.039 | pinometostat -0.015 | [5] -0.052 | [6] 0.069 | [7] 0.005 | [8] -0.022 | [9] -0.027 | [10] -0.013 | Nexturastat A -0.054 | vemurafenib 0.153 | [11] -0.007 | [12] -0.047 | givinostat -0.016 | barasertib -0.01

AASDHPPT (UniProt Q9NRN7)
inactive: IRAK-1-4 Inhibitor I 0.028 | ibrutinib -0.038 | [1] 0.043 | ralimetinib -0.067 | [2] 0 | [3] 0.049 | [4] 0.01 | pinometostat 0.003 | [5] -0.029 | [6] 0.022 | [7] -0.07 | [8] -0.02 | [9] -0.003 | [10] -0.001 | Nexturastat A -0.053 | vemurafenib 0.016 | [11] 0.016 | [12] -0.034 | givinostat -0.072 | barasertib 0.045

AARS (UniProt P49588)
inactive: IRAK-1-4 Inhibitor I 0.041 | ibrutinib 0.004 | [1] 0.022 | ralimetinib -0.044 | [2] -0.059 | [3] -0.051 | [4] 0.008 | pinometostat -0.033 | [5] -0.016 | [6] 0.017 | [7] 0.032 | [8] 0.005 | [9] 0.018 | [10] 0.06 | Nexturastat A -0.072 | vemurafenib 0.004 | [11] 0.026 | [12] 0.013 | givinostat -0.053 | barasertib 0.015

ACYP1 (UniProt P07311)
inactive: IRAK-1-4 Inhibitor I 0.039 | ibrutinib -0.03 | [1] -0.042 | ralimetinib -0.083 | [2] -0.049 | [3] -0.04 | [4] -0.022 | pinometostat -0.024 | [5] -0.027 | [6] -0.032 | [7] 0.004 | [8] -0.027 | [9] -0.016 | [10] 0.039 | Nexturastat A 0.007 | vemurafenib 0.017 | [11] 0.018 | [12] -0.047 | givinostat -0.011 | barasertib 0.013

ACTR2 (UniProt P61160)
inactive: IRAK-1-4 Inhibitor I 0.051 | ibrutinib -0.003 | [1] 0.012 | ralimetinib -0.022 | [2] 0 | [3] 0.069 | [4] 0.029 | pinometostat -0.022 | [5] -0.034 | [6] 0.03 | [7] -0.011 | [8] 0.001 | [9] -0.013 | [10] 0.006 | Nexturastat A -0.029 | vemurafenib 0.027 | [11] 0.003 | [12] -0.037 | givinostat -0.055 | barasertib 0.012

ABLIM1 (UniProt O14639)
inactive: IRAK-1-4 Inhibitor I 0.005 | ibrutinib -0.01 | [1] -0.101 | ralimetinib -0.081 | [2] -0.041 | [3] 0.055 | [4] 0.043 | pinometostat -0.06 | [5] -0.019 | [6] 0.05 | [7] -0.082 | [8] 0.013 | [9] -0.114 | [10] 0.04 | Nexturastat A 0.004 | vemurafenib -0.064 | [11] 0.073 | [12] -0.002 | givinostat 0.122 | barasertib 0.267

ACTR10 (UniProt Q9NZ32)
inactive: IRAK-1-4 Inhibitor I -0.031 | ibrutinib -0.004 | [1] 0.034 | ralimetinib 0.011 | [2] 0.04 | [3] 0.049 | [4] 0.009 | pinometostat -0.038 | [5] 0.029 | [6] -0.03 | [7] -0.017 | [8] -0.011 | [9] -0.047 | [10] -0.059 | Nexturastat A 0.008 | vemurafenib 0 | [11] -0.024 | [12] 0.001 | givinostat -0.033 | barasertib 0.066

ABHD14B (UniProt Q96IU4)
inactive: IRAK-1-4 Inhibitor I 0.027 | ibrutinib 0.012 | [1] 0.016 | ralimetinib -0.084 | [2] -0.05 | [3] -0.002 | [4] -0.102 | pinometostat -0.041 | [5] -0.015 | [6] 0.066 | [7] -0.009 | [8] -0.04 | [9] 0.042 | [10] 0.038 | Nexturastat A -0.04 | vemurafenib -0.043 | [11] 0.079 | [12] -0.051 | givinostat -0.026 | barasertib 0.016

ADAMTSL4 isoform 3 (UniProt Q6UY14)
inactive: IRAK-1-4 Inhibitor I -0.024 | ibrutinib 0.074 | [1] 0.032 | ralimetinib 0.095 | [2] 0.049 | [3] 0.093 | [4] 0.028 | pinometostat 0.094 | [5] 0.123 | [6] -0.066 | [7] -0.103 | [8] -0.027 | [9] -0.048 | [10] -0.163 | Nexturastat A 0.153 | vemurafenib -0.203 | [11] -0.085 | [12] 0.013 | givinostat 0.036 | barasertib 0.006

ADAL (UniProt Q6DHV7)
inactive: IRAK-1-4 Inhibitor I 0.119 | ibrutinib -0.038 | [1] 0.008 | ralimetinib 0.049 | [2] -0.065 | [3] 0.092 | [4] -0.049 | pinometostat -0.081 | [5] -0.033 | [6] 0.018 | [7] 0.022 | [8] -0.016 | [9] -0.001 | [10] 0.018 | Nexturastat A -0.103 | vemurafenib 0.003 | [11] 0.001 | [12] -0.007 | givinostat -0.045 | barasertib 0.021

ACOT7 isoform 7 (UniProt O00154)
inactive: IRAK-1-4 Inhibitor I 0.001 | ibrutinib 0.018 | [1] 0.011 | ralimetinib -0.041 | [2] -0.012 | [3] 0.071 | [4] -0.038 | pinometostat -0.009 | [5] 0.045 | [6] 0.015 | [7] -0.008 | [8] 0.01 | [9] 0.014 | [10] -0.018 | Nexturastat A -0.063 | vemurafenib 0 | [11] 0.026 | [12] 0.017 | givinostat 0.006 | barasertib 0

ABHD10 (UniProt Q9NUJ1)
inactive: IRAK-1-4 Inhibitor I 0.049 | ibrutinib -0.037 | [1] 0.058 | ralimetinib -0.035 | [2] -0.053 | [3] 0.046 | [4] -0.058 | pinometostat -0.02 | [5] -0.06 | [6] -0.005 | [7] -0.011 | [8] 0.024 | [9] 0.02 | [10] 0.015 | Nexturastat A -0.04 | vemurafenib -0.015 | [11] -0.025 | [12] -0.04 | givinostat -0.14 | barasertib -0.014

ABRAXAS2 (UniProt Q15018)
inactive: IRAK-1-4 Inhibitor I 0.047 | ibrutinib 0.053 | [1] 0.008 | ralimetinib -0.003 | [2] 0.005 | [3] 0.073 | [4] -0.032 | pinometostat -0.018 | [5] 0.068 | [6] 0.036 | [7] -0.041 | [8] 0.023 | [9] -0.004 | [10] 0.022 | Nexturastat A -0.092 | vemurafenib -0.051 | [11] -0.024 | [12] -0.055 | givinostat -0.03 | barasertib -0.016

ACOT8 (UniProt O14734)
inactive: IRAK-1-4 Inhibitor I -0.004 | ibrutinib 0.039 | [1] -0.011 | ralimetinib -0.05 | [2] -0.104 | [3] 0.023 | [4] 0.005 | pinometostat -0.05 | [5] -0.017 | [6] 0.007 | [7] -0.058 | [8] 0.015 | [9] 0.034 | [10] -0.006 | Nexturastat A -0.103 | vemurafenib -0.026 | [11] -0.009 | [12] -0.082 | givinostat -0.01 | barasertib -0.042
